Experimental data as given in the supplement of paper PMC6078165.

System: HCC1143
Experiment: relative JC-1 red fluorescence (viability) vs pre-drug, coculture with fibroblast (fraction); higher = more viable cancer cells
Procedure: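 JC-1 labelled TNBC cells cocultured 1:1 (1,500 cells each) with CellTrace Violet stained primary or stromal fibroblasts in 384-well plates in FluoroBrite medium, treated with one of 42 anticancer drugs at 0.1, 1, 10 or 100 uM. JC-1 red fluorescence (mitochondrial integrity in cancer cells only) was read by plate reader every 8 h for 72 h. Values are normalised to each well's pre-drug value. The stock of one drug was tenfold lower, so its dose labels may be too high.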

O=C(O)C(=O)O.[NH-][C@@H]1CCCC[C@H]1[NH-].[Pt+2] [Oxaliplatin]
relative JC-1 red fluorescence
Conditions	8 h	16 h	24 h	32 h	40 h	48 h	56 h	64 h	72 h
0.1 µM, coculture fibroblast: C12385	0.83151	0.7687	0.731	0.6773	0.6253	0.609	0.5856	0.567	0.57
0.1 µM, coculture fibroblast: H6013	0.826	0.805	0.784	0.782	0.732	0.746	0.719	0.71	0.679
0.1 µM, coculture fibroblast: H6019	0.815	0.747	0.719	0.668	0.633	0.64	0.593	0.561	0.526
0.1 µM, coculture fibroblast: H6076	0.8346	0.828	0.809	0.773	0.726	0.726	0.697	0.675	0.694
0.1 µM, coculture fibroblast: H6231	0.797	0.824	0.767	0.671	0.694	0.669	0.634	0.607	0.591
0.1 µM, coculture fibroblast: HADF	0.743	0.693	0.661	0.6701	0.5848	0.57221	0.5514	0.5352	0.5082
0.1 µM, coculture fibroblast: HCFa	0.817	0.771	0.734	0.726	0.664	0.655	0.609	0.587	0.546
0.1 µM, coculture fibroblast: HCPF	0.804	0.7893	0.74	0.658	0.641	0.613	0.573	0.54	0.531
0.1 µM, coculture fibroblast: HHSteC	0.8612	0.816	0.788	0.761	0.702	0.679	0.64	0.614	0.569
0.1 µM, coculture fibroblast: HMF	0.803	0.832	0.762	0.6805	0.669	0.647	0.615	0.593	0.577
0.1 µM, coculture fibroblast: HPFa	0.914	0.845	0.825	0.754	0.699	0.671	0.621	0.581	0.546
0.1 µM, coculture fibroblast: HUF	0.8834	0.82	0.787	0.723	0.678	0.672	0.639	0.622	0.596
0.1 µM, coculture fibroblast: Hs5	0.862	0.8922	0.8467	0.8129	0.7569	0.7298	0.7032	0.6782	0.679
0.1 µM, coculture fibroblast: Hs27A	0.727	0.7	0.673	0.694	0.589	0.594	0.56	0.539	0.506
0.1 µM, coculture fibroblast: Hs343T	0.813	0.802	0.77	0.713	0.662	0.651	0.612	0.591	0.58
0.1 µM, coculture fibroblast: WS1	0.8142	0.753	0.73	0.666	0.626	0.617	0.579	0.559	0.552
1 µM, coculture fibroblast: C12385	0.8274	0.7219	0.643	0.579	0.51	0.455	0.408	0.368	0.343
1 µM, coculture fibroblast: H6013	0.758	0.667	0.65	0.648	0.58	0.576	0.551	0.532	0.517
1 µM, coculture fibroblast: H6019	0.824	0.741	0.692	0.643	0.605	0.579	0.542	0.509	0.48
1 µM, coculture fibroblast: H6076	0.799	0.805	0.774	0.718	0.706	0.701	0.678	0.662	0.663
1 µM, coculture fibroblast: H6231	0.7982	0.8233	0.711	0.578	0.614	0.572	0.537	0.51	0.489
1 µM, coculture fibroblast: HADF	0.71	0.625	0.597	0.617	0.527	0.505	0.479	0.459	0.471
1 µM, coculture fibroblast: HCFa	0.781	0.684	0.656	0.652	0.572	0.545	0.512	0.485	0.468
1 µM, coculture fibroblast: HCPF	0.796	0.817	0.755	0.633	0.665	0.642	0.605	0.572	0.553
1 µM, coculture fibroblast: HHSteC	0.832	0.734	0.695	0.654	0.589	0.559	0.523	0.498	0.462
1 µM, coculture fibroblast: HMF	0.814	0.805	0.762	0.67	0.69	0.671	0.644	0.62	0.59
1 µM, coculture fibroblast: HPFa	0.946	0.8749	0.8548	0.7844	0.7438	0.72	0.677	0.639	0.606
1 µM, coculture fibroblast: HUF	0.885	0.778	0.729	0.672	0.634	0.602	0.556	0.532	0.502
1 µM, coculture fibroblast: Hs5	0.838	0.863	0.793	0.737	0.694	0.66	0.627	0.6	0.579
1 µM, coculture fibroblast: Hs27A	0.689	0.616	0.584	0.624	0.505	0.498	0.468	0.442	0.452
1 µM, coculture fibroblast: Hs343T	0.805	0.847	0.779	0.646	0.688	0.655	0.598	0.576	0.545
1 µM, coculture fibroblast: WS1	0.848	0.758	0.7241	0.661	0.624	0.5857	0.5487	0.519	0.496
10 µM, coculture fibroblast: C12385	0.8253	0.768	0.726	0.67	0.617	0.574	0.546	0.515	0.494
10 µM, coculture fibroblast: H6013	0.76036	0.6998	0.6802	0.67	0.6167	0.6195	0.598	0.589	0.552
10 µM, coculture fibroblast: H6019	0.82583	0.7628	0.7	0.638	0.596	0.562	0.52	0.482	0.454
10 µM, coculture fibroblast: H6076	0.813	0.839	0.781	0.715	0.701	0.687	0.661	0.64	0.649
10 µM, coculture fibroblast: H6231	0.843	0.837	0.79	0.683	0.714	0.686	0.662	0.619	0.601
10 µM, coculture fibroblast: HADF	0.6965	0.6473	0.6218	0.634	0.535	0.515	0.4908	0.4714	0.516
10 µM, coculture fibroblast: HCFa	0.808	0.731	0.696	0.686	0.606	0.59	0.553	0.523	0.508
10 µM, coculture fibroblast: HCPF	0.796	0.836	0.78437	0.661	0.719	0.693	0.679	0.655	0.65
10 µM, coculture fibroblast: HHSteC	0.858	0.828	0.821	0.805	0.766	0.75	0.714	0.687	0.638
10 µM, coculture fibroblast: HMF	0.7984	0.8417	0.778	0.668	0.686	0.652	0.621	0.596	0.567
10 µM, coculture fibroblast: HPFa	0.8949	0.804	0.763	0.665	0.6132	0.5849	0.534	0.493	0.458
10 µM, coculture fibroblast: HUF	0.8813	0.801	0.758	0.701	0.663	0.642	0.603	0.567	0.543
10 µM, coculture fibroblast: Hs5	0.86	0.892	0.844	0.815	0.766	0.742	0.72	0.69	0.695
10 µM, coculture fibroblast: Hs27A	0.697	0.625	0.5903	0.6267	0.513	0.511	0.492	0.481	0.509
10 µM, coculture fibroblast: Hs343T	0.83	0.858	0.803	0.708	0.71	0.68	0.635	0.612	0.571
10 µM, coculture fibroblast: WS1	0.838	0.7628	0.7063	0.6372	0.5875	0.549	0.503	0.471	0.443
100 µM, coculture fibroblast: C12385	0.809	0.641	0.53	0.439	0.38	0.348	0.325	0.293	0.279
100 µM, coculture fibroblast: H6013	0.693	0.532	0.46375	0.404	0.36285	0.362	0.3282	0.3161	0.257
100 µM, coculture fibroblast: H6019	0.7944	0.668	0.614	0.537	0.488	0.461	0.418	0.39	0.364
100 µM, coculture fibroblast: H6076	0.808	0.711	0.6336	0.586	0.513	0.489	0.452	0.423	0.424
100 µM, coculture fibroblast: H6231	0.8035	0.795	0.6216	0.542	0.477	0.446	0.399	0.368	0.347
100 µM, coculture fibroblast: HADF	0.732	0.628	0.57	0.534	0.464	0.454	0.424	0.406	0.35
100 µM, coculture fibroblast: HCFa	0.763	0.628	0.569	0.524	0.451	0.431	0.384	0.36	0.313
100 µM, coculture fibroblast: HCPF	0.8074	0.803	0.718	0.618	0.602	0.568	0.524	0.495	0.485
100 µM, coculture fibroblast: HHSteC	0.832	0.739	0.696	0.648	0.6	0.589	0.552	0.533	0.473
100 µM, coculture fibroblast: HMF	0.83153	0.795	0.704	0.632	0.572	0.533	0.492	0.465	0.443
100 µM, coculture fibroblast: HPFa	0.861	0.673	0.608	0.523	0.468	0.457	0.415	0.396	0.381
100 µM, coculture fibroblast: HUF	0.8788	0.743	0.644	0.546	0.491	0.466	0.429	0.403	0.385
100 µM, coculture fibroblast: Hs5	0.8722	0.8423	0.74	0.709	0.6304	0.6094	0.582	0.553	0.562
100 µM, coculture fibroblast: Hs27A	0.659	0.537	0.487	0.49	0.417	0.426	0.401	0.395	0.346
100 µM, coculture fibroblast: Hs343T	0.7909	0.7902	0.653	0.561	0.516	0.47	0.42	0.388	0.36
100 µM, coculture fibroblast: WS1	0.7914	0.602	0.508	0.427	0.37	0.344	0.314	0.299	0.287

The reference is the same well before dosing, and untreated signal decays as well.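 Fibroblast labels name human fibroblasts: mostly primary ones from tissues such as uterus (C12385, HUF), lung (H6013), bone (Hs27A), adrenal (HADF) and skin (WS1), plus mammary HMF and breast cancer-associated Hs343T. The cancer cells are basal-like or mesenchymal-like triple-negative breast cancer lines. The paper calls a changed response a hit when it shifts by more than 3x the replicate standard deviation. The tissue of the other fibroblasts is not given here.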
